We go through 9 sequences from publication PMC8160232.

Where a chain is given by its changes, count along the chain named. The exact form of at least one protein or probe is not confirmed. For part of these data: No signal at the amounts used counts as a negative. Protein sequences can lack the tags named with them.

For data set [1], the target named is T1, Vfr (Pseudomonas protegens FD6) (UniProt A0A2C9EUP7).
T1 sequence (looked up, limits assumed): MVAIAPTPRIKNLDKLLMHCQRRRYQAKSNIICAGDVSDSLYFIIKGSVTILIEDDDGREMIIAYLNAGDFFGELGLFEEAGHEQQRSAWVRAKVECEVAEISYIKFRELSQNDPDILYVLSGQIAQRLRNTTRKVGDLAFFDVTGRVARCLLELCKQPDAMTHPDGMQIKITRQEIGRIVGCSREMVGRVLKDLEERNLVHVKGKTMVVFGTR
Put plainly: EMSA. The note with it: 0.5-2 ug Vfr, competed by unlabeled probe; Beyotime chemiluminescent EMSA kit buffer (composition not given), 10 uL, 0.5-4 ug Vfr, 0.02 uM probe (legends; Methods say 1 umol), 25 C 20 min; recombinant protein; protein details: C-terminal His6; label: biotin; probe letters rebuilt from the primers and the genome.

In data set [2] the target is T2, Vfr (Pseudomonas protegens FD6) (UniProt A0A2C9EUP7).
T2 sequence (looked up, limits assumed): T1 sequence (looked up, limits assumed) with R9K, I105A
Put plainly: competition with a labelled probe. The note with it: 25 C 20 min, recombinant protein, protein details: C-terminal His6.

The target of data set [3] is T2, Vfr (Pseudomonas protegens FD6). Briefly: EMSA. Conditions: Beyotime chemiluminescent EMSA kit buffer (composition not given), 10 uL, 0.5-4 ug Vfr, 0.02 uM probe (legends; Methods say 1 umol), 25 C 20 min; recombinant protein; protein details: C-terminal His6; label: biotin (unlabeled as competitor).

Take “AAAACTGCCGTCAAACTCGGCGATGACGTTCTGATTGCCGATCAGCAGGGCGGCGGCGCCGGCTCCAGCATAGGACTCGGTCAGGTCGCCCGGCGCGGTGTTGCGGTTGATGGTGTCGGCGCCGATGGCCAGGGCGCTGCCGGTCATGCCGGAGGCCACCAGGGCCTGGCAGATCTGCAGGGCGGAGGTGCCGGACTTGCCGGCAAACTGCACGTCGGCGCAATAGGCGTCGTAACCGCTG (double strand) [phlF upstream fragment, 241 bp]”: in data set [1], the binding result is reported as “binds”.

For the sequence “CAGCGGTATTTACGCCTATTGCGCC (double strand) [phlF-mut 25 bp (TTACG to TATTT)]”, the binding result in data set [2] (200-fold unlabeled vs 0.02 uM labeled phlF probe, Beyotime chemiluminescent EMSA kit buffer (composition not given), 10 uL, 0.5-4 ug Vfr, 0.02 uM probe …; Methods say 1 umol), label: none (competitor)) is “no binding”. On to “CAGCGGTTACGACGCCTATTGCGCC (double strand) [phlF' 25-bp probe]”, for which the binding result in data set [3] is recorded as “binds”; in data set [2] (200-fold unlabeled vs 0.02 uM labeled phlF probe, Beyotime chemiluminescent EMSA kit buffer (composition not given), 10 uL, 0.5-4 ug Vfr, 0.02 uM probe …; Methods say 1 umol), label: biotin (unlabeled as competitor)) it was “binds”.

On to “CAGGCCGGGCAGTACGTTGCGCGCCAGCGGCTGATGGGCGATCAGCAGGAACAGGCAGGGCGCGAACACACTGACGGCACTGCGCAACGTGGCCGGATCTTCCGGCGACAGGTGCATGATTTGGCCGAGAATGGTGCGCACGATCTTCGCCTTGGGGAACGCCTGCTCCTCCAGGACCGCCGGCAGCACCGACGAAGGCGACAGCAGCTCGCGGGTCAGCACTTTCAGTGCCCAGCCCTC (double strand) [phlG upstream fragment, 240 bp]”, for which the binding result in data set [1] was “binds”. Same read-out and setting: to “GAGGACGTTGAACGCTGGCTAAGCGCCAGTCATTTGGCGTCAGCTTAACAGACACATCCTTGACGGATTTAAGATTTTTCTTGGTGAAGATCGGTAATCTGCTGTGAACATGCAAAGCGCAGCCCGGGCAAAACCCTGTGCTAAGCTGGCGACCCTTTTTTTACAGTGGAGTCTTGGCGATGAAGG (double strand) [vfr upstream fragment, 186 bp]” belongs “binds”. With “GGAACAGGCAGGGCGCGAACACACT (double strand) [phlG' 25-bp probe]”, the binding result is recorded as “binds” in data set [3] and “binds” in data set [2] (200-fold unlabeled vs 0.02 uM labeled phlG probe, Beyotime chemiluminescent EMSA kit buffer (composition not given), 10 uL, 0.5-4 ug Vfr, 0.02 uM probe …; Methods say 1 umol), label: biotin (unlabeled as competitor)).

Turning to “GGAACAGGCAGGGCGCGAATTTTCT (double strand) [phlG-mut 25 bp (ACACA to ATTTT)]”, the binding result in data set [2] (200-fold unlabeled vs 0.02 uM labeled phlG probe, Beyotime chemiluminescent EMSA kit buffer (composition not given), 10 uL, 0.5-4 ug Vfr, 0.02 uM probe …; Methods say 1 umol), label: none (competitor)) is on record as “no binding”. Turning to “GGGCTGCGCTTTGCATGTTCACAGC (double strand) [vfr' 25-bp probe]”, the binding result is listed as “binds” in data set [3] and “binds” in data set [2] (200-fold unlabeled vs 0.02 uM labeled vfr probe, Beyotime chemiluminescent EMSA kit buffer (composition not given), 10 uL, 0.5-4 ug Vfr, 0.02 uM probe (legends; Methods say 1 umol), label: biotin (unlabeled as competitor)). On to “GGGCTGCGCTTTGCATGTTTTTTGC (double strand) [vfr-mut 25 bp (TCACA to TTTTT)]”, for which the binding result in data set [2] (200-fold unlabeled vs 0.02 uM labeled vfr probe, Beyotime chemiluminescent EMSA kit buffer (composition not given), 10 uL, 0.5-4 ug Vfr, 0.02 uM probe (legends; Methods say 1 umol), label: none (competitor)) is reported as “no binding”.
